These are yes or no findings as the source states them, for the method shown. Some binding calls cover weakened binding; strength is not graded here.

Sequences of proteins named here, by UniProt entry; tags and fusion partners are left off. A change or cut given only in a name is not applied to a line headed by its entry. A line that says so, or that is headed by a name, gives the form on record, which may keep a tag or linker.
TGF-β1纯化蛋白 (recombinant human TGF-β1 with C-terminal 6His, from HEK-293T supernatant; holds LAP前体, TGF-β1单体 and 二聚体) (P01137, form named): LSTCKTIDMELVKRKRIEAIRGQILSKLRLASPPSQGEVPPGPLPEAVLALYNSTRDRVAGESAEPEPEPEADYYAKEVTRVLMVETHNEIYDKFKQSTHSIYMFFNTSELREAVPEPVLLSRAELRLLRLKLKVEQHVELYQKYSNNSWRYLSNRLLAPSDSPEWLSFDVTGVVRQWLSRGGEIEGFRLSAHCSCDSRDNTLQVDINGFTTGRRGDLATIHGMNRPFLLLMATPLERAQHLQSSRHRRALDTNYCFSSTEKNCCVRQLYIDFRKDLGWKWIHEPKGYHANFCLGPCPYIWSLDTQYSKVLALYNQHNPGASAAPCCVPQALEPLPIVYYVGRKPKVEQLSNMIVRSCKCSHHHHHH

This assay has as its target TGF-β1纯化蛋白 (recombinant human TGF-β1 with C-terminal 6His, from HEK-293T supernatant; holds LAP前体, TGF-β1单体 and 二聚体) (human) (UniProt P01137). Nature of the assay: indirect phage ELISA, TGF-β1 purified protein coated on the plate, anti-M13K07 enzyme conjugate; positive = reading at least 2-fold over the negative control. In general terms: In an ELISA, binding on a coated surface is turned into a signal by an enzyme label.

B1: 纳米抗体TGF-β1-VHH (B3纳米抗体), phage-displayed, culture supernatant of positive clone B3 (VHH)
VHH: ESGGGLAQAGGSLRLSCAASGSTFSINTMGWYRTVPGKQRELVALISSGGSTLYADFAKGRFTISRDNAKNTVYLQMNSLKPEDTAVYYCRSKGIGYDYWGQGTQVTVSS
Take B1: the binding result is recorded as “binds”.
